{"source": "PubChem BioAssay AID1259425 (University of Nebraska Medical Center, 2018)", "purpose": "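Compare each knockdown with KSR1 silencing using changes in marker transcripts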 (primary screen)", "cells": "HCT116 human colon cancer cells", "reagents": "siRNA pool against human genes, 50 nM siRNA", "read-out": "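After 50 nM siRNA pool, branched-DNA assay measures six marker transcripts per well, minus blank, normalised to the geometric mean of two housekeeping transcripts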", "reading the numbers": "BNIP3L mRNA: higher = more BNIP3L transcript after knockdown", "note": "This is a random part of about 14,000 reagents tested. Reagents against one gene are numbered here. Further read-outs or replicates are left out here. Not given: the time to read-out."}
{"Gene": "ORAI2 (ORAI calcium release-activated calcium modulator 2)", "reagent no.": 1, "BNIP3L mRNA, set 1": 0.114}
{"Gene": "SCUBE1 (signal peptide, CUB domain and EGF like domain containing 1)", "reagent no.": 1, "BNIP3L mRNA, set 1": 0.152}
{"Gene": "NOTCH2 (notch receptor 2)", "reagent no.": 1, "BNIP3L mRNA, set 1": 0.111}
{"Gene": "KISS1R (KISS1 receptor)", "reagent no.": 1, "BNIP3L mRNA, set 1": 0.169}
{"Gene": "MRPS23 (mitochondrial ribosomal protein S23)", "reagent no.": 1, "BNIP3L mRNA, set 1": 0.224}
{"Gene": "LRRC3 (leucine rich repeat containing 3)", "reagent no.": 1, "BNIP3L mRNA, set 1": 0.201}
{"Gene": "LRRC3 (leucine rich repeat containing 3)", "reagent no.": 2, "BNIP3L mRNA, set 1": 0.22}
{"Gene": "RACK1 (receptor for activated C kinase 1)", "reagent no.": 1, "BNIP3L mRNA, set 1": 0.0556}
{"Gene": "COL9A3 (collagen type IX alpha 3 chain)", "reagent no.": 1, "BNIP3L mRNA, set 1": 0.125}
{"Gene": "MAPK8 (mitogen-activated protein kinase 8)", "reagent no.": 1, "BNIP3L mRNA, set 1": 0.108}

3 entries from above, sorted by “BNIP3L mRNA, set 1”, highest first.
{"Gene": "KISS1R (KISS1 receptor)", "reagent no.": 1, "BNIP3L mRNA, set 1": 0.169}
{"Gene": "SCUBE1 (signal peptide, CUB domain and EGF like domain containing 1)", "reagent no.": 1, "BNIP3L mRNA, set 1": 0.152}
{"Gene": "NOTCH2 (notch receptor 2)", "reagent no.": 1, "BNIP3L mRNA, set 1": 0.111}

The results go on.
{"Gene": "PTPN18 (protein tyrosine phosphatase non-receptor type 18)", "reagent no.": 1, "BNIP3L mRNA, set 1": 0.122}
{"Gene": "GLRB (glycine receptor beta)", "reagent no.": 1, "BNIP3L mRNA, set 1": 0.0494}
{"Gene": "DYNC2H1 (dynein cytoplasmic 2 heavy chain 1)", "reagent no.": 1, "BNIP3L mRNA, set 1": 0.113}
{"Gene": "PCDHGA10 (protocadherin gamma subfamily A, 10)", "reagent no.": 1, "BNIP3L mRNA, set 1": 0.111}
{"Gene": "VARS1 (valyl-tRNA synthetase 1)", "reagent no.": 1, "BNIP3L mRNA, set 1": 0.0567}
{"Gene": "IARS1 (isoleucyl-tRNA synthetase 1)", "reagent no.": 1, "BNIP3L mRNA, set 1": 0.259}
{"Gene": "EPYC (epiphycan)", "reagent no.": 1, "BNIP3L mRNA, set 1": 0.0453}
{"Gene": "ADRA2C (adrenoceptor alpha 2C)", "reagent no.": 1, "BNIP3L mRNA, set 1": 0.0517}
{"Gene": "RANBP2 (RAN binding protein 2)", "reagent no.": 1, "BNIP3L mRNA, set 1": 0.0765}
{"Gene": "GP1BA (glycoprotein Ib platelet subunit alpha)", "reagent no.": 1, "BNIP3L mRNA, set 1": 0.204}
{"Gene": "GABARAP (GABA type A receptor-associated protein)", "reagent no.": 1, "BNIP3L mRNA, set 1": 0.301}
{"Gene": "DACH2 (dachshund family transcription factor 2)", "reagent no.": 1, "BNIP3L mRNA, set 1": 0.126}
{"Gene": "CILK1 (ciliogenesis associated kinase 1)", "reagent no.": 1, "BNIP3L mRNA, set 1": 0.0805}
{"Gene": "BNIP1 (BCL2 interacting protein 1)", "reagent no.": 1, "BNIP3L mRNA, set 1": 0.114}
{"Gene": "AHSA1 (activator of HSP90 ATPase activity 1)", "reagent no.": 1, "BNIP3L mRNA, set 1": 0.0551}
{"Gene": "FBXO42 (F-box protein 42)", "reagent no.": 1, "BNIP3L mRNA, set 1": 0.122}
{"Gene": "CRTC1 (CREB regulated transcription coactivator 1)", "reagent no.": 1, "BNIP3L mRNA, set 1": 0.272}
{"Gene": "ODAD2 (outer dynein arm docking complex subunit 2)", "reagent no.": 1, "BNIP3L mRNA, set 1": 0.0717}
